{"source": "patent US9164109B2", "about": "“Use of probes for unbound metabolites” (priority 2006, dated 2015)", "test": "UCBf measurement in 1% adult plasma titrated with UCB", "set-up": "species or system human", "conditions": "probe 0.5 μM", "data": [{"molecule": "L24P19C7: UCBf probe; FABP mutein of SEQ ID NO: 4 with Y14R M18L L38V V60R A72L A73F R106C Q115R Y117D (protein, listed as Rattus norvegicus, fluorescent probe label; MUTAGEN (72)...(72) rat intestinal fatty acid binding protein with alanine substitution for leucine at position 72 and Glu 131 to Asp subsitition.) AFDGTWKVDRNENREKFLEKMGINVVKRKLGAHDNLKVTITQEGNKFTVKESSNFRNIDRVFELGVDFAYSLFDGTELTGTWTMEGNKLVGKFKRVDNGKELIAVCEISGNELIRTDTYEGVEAKRIFKKDRGHHHHHH", "values": [{"measurement": "change of measured [UCBf] with the addition of UCB", "setting": "1% adult plasma titrated with UCB", "result": "monotonic increase"}, {"measurement": "[UCBf] measured without the addition of UCB", "setting": "1% plasma from 6 healthy adult donors", "result": "nearly zero"}]}]}
